PubChem BioAssay AID2685 (National Center for Advancing Translational Sciences (NCATS), 2010)
The list shows a part of the results. Shown are side measurements of this screen, not its main read-out; they come without a call. Compounds called inactive in the main read-out are mostly missing here. The note in brackets gives the kind of curve behind each potency; many fits are weak.

Experiment: qHTS Assay for Lipid Storage Modulators in Drosophila S3 Cells;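 for cell number change: cells counted by Cell Tracker Red CMTPX staining in the red channel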
Details: BODIPY lipid droplet fluorescence, 18-24 h; for cell number change: measured here: cell count max response, cells fed with added oleic acid
Outline: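 Drosophila S3 cells got compounds at several concentrations plus oleic acid (400 uM solution). Laser-scanning cytometry with 488 nm excitation read lipid droplets at 500-530 nm and cells at 575-640 nm. Percent activity was relative to 20 uM Triacsin C.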

[1] = measured here: cell number channel AC50, cells fed with added oleic acid
[2] = measured here: lipid fluorescence (Fed channel) AC50, cells fed with added oleic acid

CCOC(=O)C1CCN(c2ncnc3c2cnn3-c2ccc(Cl)cc2)CC1
cell number change: 34.2% | AC50 [1]: 32.6 µM [rising, single point]

COc1ccc(CC(=O)Nc2cc(=O)n(C)c(=O)n2C)cc1
cell number change: 32.2% | AC50 [1]: 4.61 µM [rising, full curve, poor fit] | AC50 [2]: 3.26 µM [rising, full curve]

O=C(COc1cccc2c1CCN(Cc1ccc(Br)cc1)C2=O)NCc1ccco1
cell number change: -27% | AC50 [2]: 11.6 µM [falling, partial curve, poor fit]

CCOc1cc(N2CCOCC2)c(OCC)cc1NC(=O)c1ccc(NC(C)=O)cc1
cell number change: -22.8% | AC50 [2]: 29.1 µM [falling, single point]

Cc1ccc(-c2nn(-c3ccccc3Cl)cc2C(=O)NCC2CCCO2)cc1 (stereo not drawn)
cell number change: 22.8% | AC50 [2]: 2.31 µM [rising, single point]

Cc1cc2c(SCC(=O)N3CCN(c4ccccc4)CC3)ncnc2s1
AC50 [2]: 3.66 µM [rising, single point]

COC(=O)c1ccc(N2C(=O)C3C4C=CC(CC4)C3C2=O)cc1 (stereo not drawn)
cell number change: -15% | AC50 [2]: 0.0291 µM [rising, full curve, poor fit]

COc1ccc(NC(=O)COC(=O)c2n[nH]c3ccccc23)c(OC)c1
cell number change: -2.38% | AC50 [2]: 6.51 µM [rising, partial curve, poor fit]

CCOCCCNS(=O)(=O)c1ccc(NC(=O)C2CC(=O)N(c3ccc(C)cc3)C2)cc1 (stereo not drawn)
cell number change: 5.95%

Cn1c(CCC(=O)Nc2ccc(N3CCOCC3)cc2)nc(=O)c2ccccc21
cell number change: 17.1%

O=C(CSc1ccc(C(F)(F)F)cc1[N+](=O)[O-])Nc1ccc2ccccc2c1
cell number change: -36% | AC50 [1]: 29.1 µM [falling, single point]

CSCCC(NS(=O)(=O)c1ccccc1F)C(=O)N1CCCCCCC1 (stereo not drawn)
cell number change: 16.4% | AC50 [2]: 14.6 µM [rising, partial curve, poor fit]

COc1ccc(CCNC(=O)c2ccc3c(c2)OCCO3)cc1
cell number change: 3%

CCCCC(CC)c1nnc(NC(=O)c2cccs2)s1 (stereo not drawn)
cell number change: -22.3% | AC50 [2]: 16.4 µM [falling, single point]

N#Cc1cc2c(nc1SCc1cccnc1)CCC2
cell number change: 5.5%

CCOc1ccc(OCCOCCN2CCOCC2)cc1
cell number change: -32.2% | AC50 [1]: 3.66 µM [falling, full curve] | AC50 [2]: 3.26 µM [falling, full curve]

COCCCNC(=S)N1CCCN(c2nc3cc(C)ccc3cc2C#N)CC1
cell number change: -35.2% | AC50 [1]: 29.1 µM [falling, single point] | AC50 [2]: 0.103 µM [falling, full curve, poor fit]

CCOc1ccccc1OCC(=O)NCCc1ccc(S(N)(=O)=O)cc1
cell number change: 9.01% | AC50 [2]: 20.6 µM [falling, partial curve]

COc1ccc(CN(C)C2CCCCC2)c(C)c1C
cell number change: 7.94% | AC50 [2]: 0.164 µM [falling, full curve, poor fit]

CCOc1ccc(NC(=O)[C@@H](NC(=O)c2ccccc2Br)C(C)C)cc1
cell number change: 108% | AC50 [2]: 13 µM [rising, partial curve]

COc1ccc(NC(=O)C(=S)N2CCCC2)cc1
cell number change: -32% | AC50 [1]: 29.1 µM [falling, single point] | AC50 [2]: 29.1 µM [falling, single point]

COc1ccc(CC(=O)NCc2nnc(SCC(=O)Nc3ccccc3)n2C)cc1
cell number change: 3.87% | AC50 [2]: 2.06 µM [falling, single point]

COc1ccc(C(O)c2nc3ccccc3n2C(C)C)cc1 (stereo not drawn)
cell number change: 26.9% | AC50 [2]: 29.1 µM [rising, single point]

O=C1/C(=C/c2ccccc2)SC(=S)N1N1C(=O)C2CC2C1=O (stereo not drawn)
cell number change: -44.3% | AC50 [1]: 1.84 µM [falling, full curve] | AC50 [2]: 1.64 µM [falling, full curve]

Cc1cc(C)cc(C(=O)Nc2nc3ccccc3[nH]2)c1
cell number change: -10.5% | AC50 [2]: 6.31 µM [rising, single point]

Cc1cc(C)cc(NC(=O)CSc2nnc(CNC(=O)c3cccs3)o2)c1
cell number change: 14.5% | AC50 [2]: 6.51 µM [falling, partial curve, poor fit]

CCOc1ccccc1NC(=O)c1cc(Cl)ccc1NC(=O)c1ccco1
AC50 [1]: 3.26 µM [rising, single point] | AC50 [2]: 1.84 µM [rising, partial curve]

CSc1cc(-c2ccc(Cl)cc2)n(Cc2ccccc2)c(=O)c1C#N
cell number change: 61.4% | AC50 [1]: 23.1 µM [rising, single point] | AC50 [2]: 1.46 µM [rising, full curve]

CC(=O)Nc1ccc(C(=O)NCC(=O)OCc2c(F)cccc2Cl)cc1
AC50 [2]: 1.16 µM [falling, single point]

C[C@@H](CC#N)CN1CC[C@H](C(C)(C)C)CCC1=O
cell number change: -6.89% | AC50 [2]: 25.9 µM [rising, single point]

Cc1ccc(Nc2oc(C)nc2C#N)cc1
cell number change: 3.93%

CCn1c(-c2ccccc2Cl)nn(CC(=O)NCCc2ccccc2)c1=S
cell number change: 38% | AC50 [1]: 11.6 µM [rising, partial curve, poor fit] | AC50 [2]: 10.3 µM [rising, partial curve, poor fit]

COc1ccc(N(CC(=O)N2CCN(c3ccc(F)cc3)CC2)S(=O)(=O)c2c(C)noc2C)cc1
cell number change: -23.1%

CN1\C(=C/C=C/C=C/C=[N+](C)C)C(C)(C)c2ccccc21
cell number change: -180% | AC50 [1]: 29.1 µM [falling, single point]

CCOc1ccc(C)cc1S(=O)(=O)n1nc(C)cc1C
cell number change: 52.7% | AC50 [1]: 18.4 µM [rising, single point]

Cc1ccc(-n2cc(-c3ccc([N+](=O)[O-])cc3)[nH]c2=S)c(C)c1
cell number change: -15.9%

CCCCn1nnnc1SCC(=O)Nc1cccc(C)n1
AC50 [1]: 4.11 µM [rising, partial curve]

CCOC(=O)c1sc(N)c(C#N)c1CSc1nc2ccc(C)cc2[nH]1
AC50 [1]: 0.092 µM [rising, full curve, poor fit]

CC(=O)SC(C[N+](=O)[O-])c1cn(C(C)=O)c2ccccc12 (stereo not drawn)
cell number change: -30%

COc1ccccc1NC(=O)CSc1nnc2ccccn12
cell number change: 5.14%

Cc1ccc(C(=O)NCC(=O)NC23CC4CC(CC(C4)C2)C3)cc1
cell number change: 30.5% | AC50 [1]: 32.6 µM [rising, partial curve, poor fit] | AC50 [2]: 0.461 µM [rising, full curve]

O=C(Nc1nc2ccc(SC(F)F)cc2s1)c1ccc(NS(=O)(=O)c2ccc(F)c(F)c2)cc1
cell number change: -5.37% | AC50 [2]: 25.9 µM [falling, single point]

CC(C)(C)c1cc(C(F)(F)F)nc(SCCCNC(=O)c2ccco2)n1
cell number change: 133% | AC50 [1]: 2.06 µM [rising, full curve] | AC50 [2]: 2.06 µM [rising, partial curve]

Cc1ccc(SCC(=O)NC(=O)Nc2ccc3c(c2)OCCO3)cc1C
cell number change: 44.1% | AC50 [1]: 18.4 µM [rising, single point] | AC50 [2]: 23.1 µM [rising, single point]

CC(C)C[C@@H](CO)N1CCN(Cc2ccc(Br)cc2)CCC1=O
cell number change: -11.7%

COc1cc(C(=O)N=C2SC3CS(=O)(=O)CC3N2c2ccccc2)cc(OC)c1OC (stereo not drawn)
cell number change: 7.25% | AC50 [2]: 0.13 µM [rising, full curve, poor fit]

CCCCC(=O)Nc1cc(N(C)C)nc2ccccc12
cell number change: 4.89% | AC50 [2]: 1.16 µM [rising, full curve]

CCCn1c(N)c(N2CCCCC2)c(=O)n(CC(=O)Nc2ccccc2C)c1=O
cell number change: 8.37% | AC50 [2]: 7.31 µM [rising, partial curve, poor fit]

CCOC(=O)C1(Cc2cccc(Cl)c2)CCCN(C(=O)c2ccoc2C)C1 (stereo not drawn)
cell number change: -22.3% | AC50 [2]: 0.00517 µM [rising, full curve, poor fit]

O=C1CCCN1CCCNS(=O)(=O)c1ccc(Br)s1
cell number change: -15.5%

O=S(=O)(NC1CCCCC1NS(=O)(=O)c1ccc(F)cc1)c1ccc(F)cc1 (stereo not drawn)
cell number change: 19.2%

CN(C)C(CNC(=O)c1cc(Br)ccc1Cl)c1ccco1 (stereo not drawn)
cell number change: 16.9%

Cc1ccccc1C(=O)NNC(=O)c1ccncc1
cell number change: 17.9% | AC50 [2]: 29.1 µM [rising, single point]

CCN(CC)S(=O)(=O)c1cc(C(=O)Nc2ccccc2[N+](=O)[O-])ccc1Cl
cell number change: 3.41% | AC50 [2]: 1.3 µM [rising, full curve, poor fit]

CCc1c(C)nc(N2CCN(c3ccc(F)cc3)CC2)[nH]c1=O
cell number change: 13.3% | AC50 [2]: 6.51 µM [falling, single point]

COCC(COS(N)(=O)=O)Cc1ccccc1 (stereo not drawn)
cell number change: 2.91% | AC50 [2]: 29.1 µM [rising, single point]

Cc1cccc(C(=O)OC(C)C(=O)NC2CCCc3ccccc32)c1O (stereo not drawn)
cell number change: 30.3% | AC50 [2]: 6.51 µM [rising, partial curve, poor fit]

O=c1c2cc(F)ccc2sn1-c1ccc(F)cc1
cell number change: -85.6% | AC50 [1]: 10.3 µM [falling, partial curve] | AC50 [2]: 5.8 µM [falling, full curve]

COc1cc(NC(=O)c2cc(S(=O)(=O)N3CCCCC3)c[nH]2)cc(OC)c1
cell number change: 15%

CC(C)C(NC(=O)c1ccc(C(C)(C)C)cc1)C(=O)O (stereo not drawn)
cell number change: 12.1%

O=C(/C=C/c1cccc([N+](=O)[O-])c1)NCc1ccccc1
cell number change: -96.1% | AC50 [1]: 29.1 µM [falling, single point] | AC50 [2]: 29.1 µM [falling, partial curve]

Cc1nonc1OCCNC(=O)C12CC3CC(CC(C3)C1)C2
cell number change: -12.1% | AC50 [2]: 11.6 µM [falling, partial curve, poor fit]

O=C(NC1CCCCCC1)c1cc2c(=O)n3ccccc3nc2s1
cell number change: 28.6%
